Measurements as given in PubChem BioAssay AID504834 (National Center for Advancing Translational Sciences (NCATS), 2011).
The campaign covered roughly 320,000 compounds. About 22,000 (6.9%) were called active. The inconclusive results got no clear call from the source; some entries with a clear call stand among them for comparison. The call rests on the fitted dose curve; in most records, active means well fitted inhibition curve with a large enough effect; inconclusive means small, poorly fitted or top-dose-only effect, or another doubt; inactive means no such curve, though single readings can be large or run the other way. Potencies of inconclusive entries are doubtful fits and often do not repeat.
On the % scale 0 is the no-effect control and ±100 the full control effect; potency means the concentration at half of the fitted maximal effect.

Assay: Primary qHTS for delayed death inhibitors of the malarial parasite plastid, 96 hour incubation
Settings: P. falciparum luciferase reporter growth; series mostly up to 28.7 µM; activity change, negative = inhibition: at the top concentration
How it was run: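 96 h incubation, 37 C, 5% CO2, of luciferase-reporter P. falciparum-infected RBCs (2% hematocrit, 0.05% parasitemia final) with test compounds; endpoint luminescence.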
For `CN1C(=O)c2ccccc2C(C(=O)NCc2ccco2)C1c1c[nH]c2ccccc12` (centres undefined), the Potency was inconclusive: 16.5 µM [inhibitor, single point]. With `O=S(=O)(NCc1csc(-c2cccnc2)n1)c1cccs1` the Potency was inconclusive: 18.5 µM [inhibitor, single point]. With `Cc1cc(NC(=O)c2ccco2)ncc1NC(=O)Cc1ccccc1` the Potency was active: 8.28 µM. In the case of `COc1ccc(N(CN2C(=O)c3ccccc3C2=O)C(=O)C(C)C)cc1`, the Potency is reported as inconclusive: 11.7 µM [inhibitor, single point]. For `Cc1ccc(NC(=O)NC2CC(=O)N(c3ccc4c(c3)OCCO4)C2)cc1F` (centres undefined), the Potency was inconclusive: 0.233 µM [inhibitor, full curve]. For `CCOC(=O)c1c(C)[nH]c(C)c1S(=O)(=O)N(C)CC(=O)Nc1cc(C)ccc1OC`, the “activity change, negative = inhibition” value was inactive: -25.6%. For `Cc1ccc(NC(=O)[C@@]2(CC(=O)O)CC(/C=C/c3ccccc3)=NO2)c(C)c1`, the “activity change, negative = inhibition” value was inactive: 20.5%. For `CC1CCCCC1NC(=O)c1c(O)nc2ccccn2c1=O` (centres undefined), the Potency was active: 5.22 µM. With `COCCn1c(=O)[nH]c2cc(C(=O)NCCN3CCN(c4ccccc4F)CC3)ccc2c1=O` the Potency was inconclusive: 18.5 µM [inhibitor, single point]. In the case of `O=C(CSc1nnnn1-c1cccc2ccccc12)N1CCOCC1`, the Potency is reported as inconclusive: 13.1 µM [inhibitor, single point]. For `CC(=O)Nc1cccc(NC(=O)COC(=O)C2CC3CCCC(C2)C3=O)c1` (centres undefined), the Potency was inconclusive: 9.28 µM [inhibitor, partial curve, poor fit]. In the case of `Cc1nn(-c2ccc(N3CCOCC3)nn2)c(C)c1CCC(=O)NCc1ccccc1F`, the Potency is reported as inconclusive: 10.4 µM [inhibitor, partial curve]. In the case of `COc1ccc(-c2noc(N3CCCC(C(=O)Nc4ccccc4F)C3)n2)cc1` (centres undefined), the Potency is reported as active: 10.4 µM. For `Cc1cc(NCCN2CCOCC2)n2ncc(-c3ccccc3)c2n1`, the “activity change, negative = inhibition” value was inactive: 167%. In the case of `COC(CNC(=O)C(=O)Nc1ccc2c(c1)N(S(=O)(=O)c1cccs1)CCC2)OC`, the “activity change, negative = inhibition” value is reported as inactive: 2.75%. For `CCOc1ccc(CCNC(=O)CCOc2cc(C)ccc2C)cc1OCC`, the Potency was inconclusive: 11.7 µM [inhibitor, partial curve, poor fit]. With `CCOC(=O)c1c(S(=O)(=O)N(C)Cc2ccco2)c(C)n(C)c1C` the Potency was inconclusive: 18.5 µM [inhibitor, single point]. For `CN(C(=O)c1ccc(S(=O)(=O)NC2CCCC2)cc1)C1CCCCC1`, the Potency was inconclusive: 18.5 µM [inhibitor, single point]. For `CCC(C)[C@H]1CNCCN1CCc1cccc2ccccc12` (some centres undefined), the Potency was inconclusive: 18.5 µM [inhibitor, single point]. For `O=C(Nc1sc2c(c1C(=O)O)CCCCC2)c1ccccc1F`, the “activity change, negative = inhibition” value was inactive: -1.31%. In the case of `O=C(O)CSCC(=O)NCc1cccc(C(F)(F)F)c1`, the “activity change, negative = inhibition” value is reported as inactive: 34.3%. For `COC(=O)C(NS(=O)(=O)c1cccc(S(=O)(=O)NC(C(=O)OC)c2ccccc2)c1)c1ccccc1` (centres undefined), the Potency was inconclusive: 20.8 µM [inhibitor, partial curve, poor fit]. In the case of `C[C@@H]1CN(c2nc3nonc3nc2N2CCSCC2)C[C@H](C)O1`, the Potency is reported as inconclusive: 10.4 µM [inhibitor, single point]. In the case of `COc1ccc(C(=O)Nc2ccc(NC(=O)C3CC3)nc2)cc1`, the Potency is reported as active: 10.4 µM. With `CN(C)c1cc2c(c(N(C)C)c1)C(=O)c1ccccc1C2=O` the Potency was active: 4.15 µM. For `O=C(Nc1ccc(Cl)c(-c2nc3ccccc3[nH]2)c1)c1ccc2c(c1)OCO2`, the Potency was inconclusive: 18.5 µM [inhibitor, single point]. In the case of `CC(=O)Nc1ccc(S(=O)(=O)N(C)CC(=O)OCC(=O)N(C)C2CCS(=O)(=O)C2)cc1` (centres undefined), the Potency is reported as inconclusive: 11.7 µM [inhibitor, single point]. For `CCn1cc(C(=O)NCc2ccccc2Cl)cn1`, the “activity change, negative = inhibition” value was inactive: -22.1%. In the case of `N#CCn1nnc(-c2ccc3c(c2)OCO3)n1`, the Potency is reported as inconclusive: 9.28 µM [inhibitor, partial curve, poor fit]. With `CCc1nc(SCC(=O)NNC(=O)C(C)C)c2ccccc2n1` the Potency was active: 11.7 µM. With `COc1ccccc1NC(=O)CCc1nc(-c2ccccc2F)no1` the “activity change, negative = inhibition” value was inactive: -0.9%. With `CCOC(=O)C(C)n1nc(C)c2sc3ccccc3c2c1=O` (centres undefined) the “activity change, negative = inhibition” value was inactive: 20.1%. With `C=CCn1c2ccccc2c(=O)c2cc(C#CC3(O)CCCCC3)ccc21` the Potency was inconclusive: 16.5 µM [inhibitor, single point]. For `CNC(=O)CCn1nc(-c2ccc(C)cc2)c2ccccc2c1=O`, the Potency was inconclusive: 18.5 µM [inhibitor, single point]. In the case of `Cc1cc(C(=O)N/N=C/c2cc([N+](=O)[O-])ccc2O)c2ccccc2n1`, the Potency is reported as inconclusive: 1.17 µM [inhibitor, partial curve, poor fit]. In the case of `O=C(CSc1nc2cc(Cl)ccc2c(=O)n1Cc1ccco1)Nc1ccc(S(=O)(=O)N2CCOCC2)cc1`, the Potency is reported as active: 10.4 µM. With `Cc1cc(S(=O)(=O)N2CCCOC2CNC(=O)C(=O)NCCc2ccco2)ccc1F` (centres undefined) the Potency was active: 8.28 µM. For `O=C(CCn1c(=O)c2ccccc2n(Cc2ccccc2)c1=O)NCc1ccc2c(c1)OCO2`, the Potency was inconclusive: 14.7 µM [inhibitor, single point]. With `CCN1CCN(c2cc(C)c3cc(NC(=S)N4CCN(c5ccccc5F)CC4)ccc3n2)CC1` the Potency was inconclusive: 14.7 µM [inhibitor, single point]. In the case of `CCOc1ccc(NC(=O)CN2C(=O)C3CCCN3C2=O)cc1` (centres undefined), the Potency is reported as inconclusive: 14.7 µM [inhibitor, partial curve, poor fit]. In the case of `COc1ccccc1NC(=S)N(Cc1ccco1)Cc1cc2ccc(C)c(C)c2[nH]c1=O`, the “activity change, negative = inhibition” value is reported as inactive: 150%. With `CCOC(=O)C1CCCN(c2ccc(NC(=O)c3snc4c(=O)[nH]c(C)nc34)cc2)C1` (centres undefined) the Potency was active: 0.928 µM. In the case of `CCCNC(=S)N1CCN(c2nc(-c3cccc(OC)c3)cs2)CC1`, the Potency is reported as inconclusive: 10.4 µM [inhibitor, single point]. With `CCCN1CCN(CCCNC(=O)c2ccc(CS(=O)c3ccccc3C)o2)CC1` (centres undefined) the “activity change, negative = inhibition” value was inactive: 8.71%. In the case of `COc1ccc(-c2cc(C(F)F)n3ncc(C(=O)Nc4ccc(C(=O)N5CCOCC5)cc4)c3n2)cc1`, the “activity change, negative = inhibition” value is reported as inactive: 43.7%. With `CC(C)(C)C1CCC(C(=O)Nc2nccs2)CC1` (centres undefined) the Potency was inconclusive: 16.5 µM [inhibitor, single point]. With `Cc1cccc(C(=O)OCC(=O)NC(=O)c2ccccc2)c1O` the “activity change, negative = inhibition” value was inactive: -3.74%. For `CCOC(=O)C(NC(=O)c1cccc(Cl)c1)(Nc1sc2c(c1C(N)=O)CCC2)C(F)(F)F` (centres undefined), the Potency was inconclusive: 18.5 µM [inhibitor, single point]. For `CC(C)CNc1c2c(nc3ccccc13)CCC2`, the Potency was inconclusive: 7.38 µM [inhibitor, partial curve, poor fit]. For `CC(=O)Nc1ccc(NC(=O)CN2C(=O)COc3ccc(S(=O)(=O)N4CCOCC4)cc32)cc1`, the Potency was inconclusive: 11.7 µM [inhibitor, single point]. In the case of `O=C(NC(=S)NNC(=O)c1ccccc1[N+](=O)[O-])c1ccccc1`, the Potency is reported as inconclusive: 0.117 µM [inhibitor, full curve, poor fit]. For `CCc1ccccc1NC(=O)C1CCCN(c2nn3c(=O)cc(C)nc3s2)C1` (centres undefined), the Potency was active: 10.4 µM. For `CN(CC(=O)Nc1ccc(Cl)c(S(=O)(=O)N2CCOCC2)c1)C(=O)c1ccc(C#N)cc1`, the Potency was inconclusive: 18.5 µM [inhibitor, single point]. In the case of `CN(CC(=O)Nc1ccc(Cl)cc1)C(=O)c1sccc1-c1ccccc1`, the Potency is reported as inconclusive: 1.85 µM [inhibitor, partial curve, poor fit]. With `CN(C(=O)CC1C(=O)NCCN1CC(c1ccccc1)c1ccccc1)C(C1CC1)C1CC1` (centres undefined) the Potency was inconclusive: 5.86 µM [inhibitor, partial curve]. With `O=C(CCC(=O)N(CC(=O)NC1CCCC1)c1ccccc1F)Nc1nccs1` the Potency was inconclusive: 18.5 µM [inhibitor, single point]. With `COc1ccc(C(=S)N2CCOCC2)cc1OC(=O)c1cc([N+](=O)[O-])c(C)c([N+](=O)[O-])c1` the “activity change, negative = inhibition” value was inactive: 20.7%. In the case of `O=C1N=C(N2CCOCC2)S/C1=C\c1ccncc1`, the Potency is reported as inconclusive: 5.22 µM [inhibitor, partial curve]. With `COC(=O)C1=C(c2ccc(OC)c(OC)c2)C[C@@H]2CC[C@H]1N2C(=O)NCCO` the “activity change, negative = inhibition” value was inactive: 12.2%. In the case of `CC1CCC(NC(=O)CN(C)S(=O)(=O)c2ccc3c(c2)CCC(=O)N3)CC1` (centres undefined), the Potency is reported as active: 1.47 µM. For `COCCn1cnc2c1c(=O)n(Cc1ccc(C#N)cc1)c(=O)n2Cc1ccccc1`, the Potency was inconclusive: 11.7 µM [inhibitor, single point]. In the case of `CSc1ncccc1C(=O)N1CCN(S(=O)(=O)c2ccc(F)cc2)CC1`, the Potency is reported as inconclusive: 11.7 µM [inhibitor, partial curve, poor fit]. For `C/C(=N/OC(=O)c1c(-c2ccccc2Cl)noc1C)c1cnccn1`, the Potency was inconclusive: 18.5 µM [inhibitor, single point]. In the case of `Cn1cc(C(=O)C(=O)N2CCOCC2)c2ccccc21`, the Potency is reported as inconclusive: 13.1 µM [inhibitor, partial curve]. For `O=C(Nc1cccc(-c2cccc(F)c2)c1)C1CCN(C2CCOCC2)CC1`, the Potency was active: 7.38 µM. In the case of `COc1cc2c(cc1OC)-c1cc(Nc3ccc(N(C)C)cc3)nc(=O)n1CC2`, the Potency is reported as inconclusive: 11.7 µM [inhibitor, single point]. For `COC(=O)[C@H](CCSC)NC(=O)Nc1ccc(S(N)(=O)=O)cc1`, the “activity change, negative = inhibition” value was inactive: 62.9%. In the case of `COc1cc(/C=N/NC(=S)Nc2cccc(S(=O)(=O)N(C)C)c2)ccc1O`, the Potency is reported as inconclusive: 10.4 µM [inhibitor, partial curve]. In the case of `COc1ccc(NC(=S)N2CCN(c3ccccn3)CC2)cc1OC`, the Potency is reported as active: 7.38 µM.
